Measured values from PubChem BioAssay AID2685 (National Center for Advancing Translational Sciences (NCATS), 2010).
About 2,100 (0.66%) of roughly 320,000 compounds were called active. The inconclusive results got no clear call from the source; some entries with a clear call stand among them for comparison. The call rests on the fitted dose curve; in most records, active means well fitted inhibition curve with a large enough effect in the signal ratio, with a control signal flat (not every such curve was filed as active); inconclusive means small, poorly fitted or top-dose-only effect, or effect the other way, or a change in a side signal; inactive means flat fitted curve, though single readings scatter; the % refers to the signal ratio. Where the call is inconclusive, the potency comes from a doubtful curve fit.
On the % scale 0 is the no-effect control and ±100 the full control effect; potency means the concentration at half of the fitted maximal effect.

Experiment: qHTS Assay for Lipid Storage Modulators in Drosophila S3 Cells
Settings: BODIPY lipid droplet fluorescence, 18-24 h, cells fed with added oleic acid; lipid storage change, negative = inhibition: at 46.1 µM (top of the series) unless noted
Method in brief: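 Drosophila S3 cells got compounds at several concentrations plus oleic acid (400 uM solution). Laser-scanning cytometry with 488 nm excitation read lipid droplets at 500-530 nm and cells at 575-640 nm. Percent activity was relative to 20 uM Triacsin C.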
With CC(=O)Nc1ccc(OCc2cnc(Cl)s2)cc1 the Potency was inconclusive: 6.51 µM [cytotoxic, single point].
With COc1ccccc1OCCn1c(=S)[nH]c2ccccc21 the Potency was inconclusive: 29.1 µM [falling, partial curve, poor fit].
In the case of CCN(C(=O)c1cc2cc3ccc(C)cc3nc2o1)c1ccc(OC)cc1, the lipid storage change, negative = inhibition is reported as inconclusive: 3.45%.
For O=C(O)/C=C/C(=O)Nc1ccc(OC(F)(F)F)cc1, the lipid storage change, negative = inhibition was inconclusive: -24.3%.
For CCOc1ccccc1N1CCN(C(=O)c2cc3c(s2)CCC3)CC1, the Potency was inconclusive: 1.16 µM [activator, full curve, poor fit].
With O=C(O)c1ccc(N=C2NC(=O)C(CO)(CO)S2)cc1 the lipid storage change, negative = inhibition was inconclusive: -3.26%.
With Cc1ccc(S(=O)(=O)N2CCCC2)cc1C(=O)NCc1ccccc1CN1CCCC1 the lipid storage change, negative = inhibition was inconclusive: -27%.
With COC(=O)c1ccc(CSc2ccc3nnc(-c4cccnc4)n3n2)o1 the lipid storage change, negative = inhibition was inconclusive: 55.7%.
In the case of CCOC(=O)c1ccc(-n2ccnc2)c(NC(=O)c2ccc(Cl)cc2)c1, the Potency is reported as inconclusive: 29.1 µM [activator, single point].
For COc1ccccc1N(CC(=O)NC1CCCC1)C(=O)c1csnn1, the lipid storage change, negative = inhibition was inconclusive: 15.4%.
With Cc1ccc(C(=O)Nc2cccc(C(=O)NCc3ccccc3)c2)o1 the lipid storage change, negative = inhibition was inconclusive: 10.8%.
In the case of Cc1ccc(N=Nc2c(C)[nH]n(C(N)=S)c2=O)cc1C, the lipid storage change, negative = inhibition is reported as inconclusive: 55.7%.
For CCCCOc1ccc(C(=O)N2CCNC(=O)C2)cc1, the lipid storage change, negative = inhibition was inconclusive: 24.1%.
In the case of CN(CC(=O)NC1CCCCCC1)S(=O)(=O)c1ccc(F)cc1, the Potency is reported as inconclusive: 18.4 µM [activator, single point].
In the case of Cc1ccc(/C=C2/Sc3ccc(C(=O)NCCN4CCOCC4)cc3NC2=O)cc1, the lipid storage change, negative = inhibition is reported as inconclusive: 104%.
In the case of O=S(=O)(CCC1CCCCN1)c1ccccc1 (configuration not stated), the lipid storage change, negative = inhibition is reported as inconclusive: 20.2%.
In the case of Cc1cc(F)ccc1S(=O)(=O)N1CCCOC1CNC(=O)C(=O)NCCc1ccccc1 (configuration not stated), the lipid storage change, negative = inhibition is reported as inconclusive: 22.8%.
With Cc1noc(C)c1COc1cccc(C(=O)N2CCN(C/C=C/c3ccccc3)CC2)c1 the Potency was inconclusive: 18.4 µM [activator, single point].
For Fc1ccc(-c2nc3nc4ccccc4nc3n2Cc2ccco2)cc1, the lipid storage change, negative = inhibition was inconclusive: 11.3%.
For Cc1ccc(C(=O)NCCCN2CCOCC2)c(Cl)c1, the lipid storage change, negative = inhibition was inconclusive: 4.44%.
For CCOC(=O)CNC(=O)C1CCC(CNS(=O)(=O)c2cccc3nsnc23)CC1 (configuration not stated), the lipid storage change, negative = inhibition was inconclusive: 32.7%.
In the case of CC(=O)Nc1ccc(CN2CCN(CC(C)C)C(CCO)C2)cc1 (configuration not stated), the lipid storage change, negative = inhibition is reported as inconclusive: 9.56%.
For C[C@H](NC(N)=O)C(=O)OCC(=O)Nc1ccc(OC(F)F)cc1, the lipid storage change, negative = inhibition was inconclusive: 31.4%.
In the case of CN(Cc1ccco1)C(=O)C1CCCN(c2ncnc3c2nc2n3CCCCC2)C1 (configuration not stated), the lipid storage change, negative = inhibition is reported as inconclusive: -54%.
In the case of COC(=O)C(C)N(C(=O)c1cccc(Cl)c1)c1c(C)cccc1C (configuration not stated), the lipid storage change, negative = inhibition is reported as “inactive”.
With O=C(CC(Nc1ccc(F)cc1)C(=O)OCC(=O)c1cccs1)c1ccccc1 (configuration not stated) the lipid storage change, negative = inhibition was inconclusive: -15.8%.
In the case of CC(=O)c1ccccc1NC(=O)CSc1nnc(Cc2csc(C)n2)o1, the lipid storage change, negative = inhibition is reported as “inconclusive”.
With COc1ccc(-c2cn3cc(C(F)(F)F)cc(Cl)c3n2)cc1 the Potency was inconclusive: 1.46 µM [cytotoxic, full curve].
With O=C(O)c1ccc(CNC(=O)c2ccc3c(c2)OCCO3)cc1 the lipid storage change, negative = inhibition was inconclusive: 25.7%.
In the case of Cc1cccc(N2CCN(CCCNC(=O)C3CCCN(c4ncnc5c4nc4n5CCCCC4)C3)CC2C)c1 (configuration not stated), the Potency is reported as inconclusive: 29.1 µM [activator, single point].
In the case of CCN(C1CCS(=O)(=O)C1)S(=O)(=O)c1cccc([N+](=O)[O-])c1 (configuration not stated), the lipid storage change, negative = inhibition is reported as inconclusive: 14%.
For O=C(COc1cccnc1[N+](=O)[O-])NCCc1ccc(F)cc1, the lipid storage change, negative = inhibition was inconclusive: 14.9%.
With COc1ccc(C2=NN(C(=O)/C=C/c3ccccc3)C(c3ccccc3)C2)c(OC(C)=O)c1 (configuration not stated) the lipid storage change, negative = inhibition was inconclusive: 10.7%.
In the case of O=C(COC(=O)c1ccco1)Nc1cccc(Br)c1, the lipid storage change, negative = inhibition is reported as inconclusive: -14.1%.
With Cc1cc(C)cc(C(=O)NCC(=O)OCC(=O)NCc2ccco2)c1 the Potency was inconclusive: 5.17 µM [falling, single point].
With C#CCOC(=O)C(NC(=O)c1ccccc1)=C1CCCCC1 the Potency was inconclusive: 3.26 µM [rising, single point].
In the case of O=C(N/N=C/c1ccc(O)cc1)c1cccc(C(F)(F)F)c1, the lipid storage change, negative = inhibition is reported as inconclusive: 15.6%.
With Nc1cc2c(cc1[N+](=O)[O-])OCCOCCOCCO2 the lipid storage change, negative = inhibition was inconclusive: 30.7%.
In the case of CCC(C)[C@H](NC(=O)N1CCn2c1nc1ccccc12)C(=O)NCCc1ccc(OC)c(OC)c1 (some centres not stated), the lipid storage change, negative = inhibition is reported as inconclusive: -12.6%.
With COC(=O)c1ccn(C(=O)c2ccc(Cl)cc2)n1 the Potency was inconclusive: 16.4 µM [falling, partial curve, poor fit].
In the case of CCNC(=S)N(CCc1c(C)[nH]c2ccccc12)Cc1cccnc1, the lipid storage change, negative = inhibition is reported as inconclusive: 4.72%.
In the case of CCC(=O)N1c2ccc(S(=O)(=O)N3CCN(c4ccc([N+](=O)[O-])cc4)CC3)cc2CC1C (configuration not stated), the lipid storage change, negative = inhibition is reported as inconclusive: -135%.
With Fc1cccc(Cc2noc(CN3CCC(c4ccncc4)CC3)n2)c1 the lipid storage change, negative = inhibition was inconclusive: -18.1%.
For CCN(CC(=O)Nc1cc(S(=O)(=O)N2CCOCC2)ccc1C)Cc1ccccc1, the lipid storage change, negative = inhibition was inconclusive: -2.07%.
In the case of CCC(C(=O)Nc1ccc(C(=O)O)cc1NC(=O)C(CC)c1ccccc1)c1ccccc1 (configuration not stated), the Potency is reported as inconclusive: 0.116 µM [activator, full curve, poor fit].
For COc1ccccc1NC(=O)c1cccc(NC(=O)c2ccco2)c1, the lipid storage change, negative = inhibition was inconclusive: -50.3%.
With CC1(C)CC(=O)C2=C(C1)NC1=C(C(=O)c3ccccc31)C2c1ccccc1 (configuration not stated) the Potency was inconclusive: 16.4 µM [activator, partial curve, poor fit].
With CN1CCN(C(=O)/C=C/c2c(F)cccc2Cl)CC1 the lipid storage change, negative = inhibition was inconclusive: -54.1%.
In the case of CCOc1ccc(CCNC(=O)C2CCN(c3nn4c(=O)cc(C)nc4s3)CC2)cc1OCC, the Potency is reported as active: 5.8 µM.
In the case of CCO[C@H]1OC(C(=O)O)=C[C@@H](c2ccc(C(F)(F)F)cc2)[C@@H]1CCCO, the lipid storage change, negative = inhibition is reported as inconclusive: -19.3%.
For CNC(=O)c1ccc(OCc2ccccc2)c(OC)c1, the Potency was inconclusive: 3.66 µM [activator, single point].
For COc1ccc(C(CNC(=O)c2sccc2C)N2CCOCC2)cc1 (configuration not stated), the Potency was inconclusive: 6.51 µM [rising, full curve, poor fit].
In the case of Cc1ccc(Cl)cc1NC(=O)C1CCCN(S(=O)(=O)c2c(C)noc2C)C1 (configuration not stated), the lipid storage change, negative = inhibition is reported as inconclusive: -3.28%.
For Cn1nc(C(F)(F)F)c2cc(C(=O)Nc3ccc(F)c(Cl)c3)sc21, the Potency was inconclusive: 0.0651 µM [activator, partial curve].
For CC1(C)Cc2c(cnn2-c2ccccc2)C(=O)/C1=N\NC(=O)c1ccccc1O, the Potency was inconclusive: 18.4 µM [activator, partial curve].
For CCOC(=O)C1=C(Nc2ccc(Br)cc2)CC(C)(O)C(C(=O)OCC)C1c1ccccc1 (configuration not stated), the lipid storage change, negative = inhibition was “inactive”.
For CCNc1nc(NCC)nc(SCCOc2ccc(C)cc2)n1, the Potency was inconclusive: 4.61 µM [activator, partial curve].
With CCc1ccccc1NC(=O)c1ccc(NS(C)(=O)=O)cc1 the lipid storage change, negative = inhibition was inconclusive: 6.59%.
In the case of CS(=O)(=O)NN1C(=O)c2ccccc2NC12CCCC2, the lipid storage change, negative = inhibition is reported as inconclusive: -27.5%.
With COc1ccc(C(C(=O)NCC2CCCO2)N(C(=O)Cn2nnc3ccccc32)c2ccc(NC(C)=O)cc2)c(OC)c1 (configuration not stated) the lipid storage change, negative = inhibition was inconclusive: 43%.
For O=C(Nc1cc(=O)[nH]c2nc(-c3ccc(Cl)cc3)nn12)c1ccccc1, the lipid storage change, negative = inhibition was inconclusive: 4.91%.
For COc1cc(/C=C/C(=O)NC(C)C)ccc1OCc1ccccc1, the lipid storage change, negative = inhibition was inconclusive: -5.77%.
For CCC(CC)C(=O)c1c[nH]c(C(=O)NN)c1, the lipid storage change, negative = inhibition was inconclusive: 11.6%.
In the case of O=C(c1ccccc1Br)N1CCN(c2ccccc2)CC1, the lipid storage change, negative = inhibition is reported as inconclusive: 18.9%.
With O=C(N/N=C\c1cn[nH]c1-c1ccc(Cl)cc1)c1cccs1 the lipid storage change, negative = inhibition was inconclusive: 7.54%.
For Cc1cc(=O)n2[nH]nnc2n1, the lipid storage change, negative = inhibition was “inactive”.
In the case of CC(C)(C)NC(=O)CCCCCCCC(=O)NC(C)(C)C, the lipid storage change, negative = inhibition is reported as inconclusive: -17.7%.
With Cc1ccc(-n2nnnc2-c2cnc3cc4c(cc3c2C)OCO4)cc1 the Potency was inconclusive: 9.2 µM [activator, partial curve].
For COC(=O)c1cc(NC(=O)c2cc(-c3ccccc3Cl)oc2C(F)(F)F)ccc1N1CCOCC1, the lipid storage change, negative = inhibition was inconclusive: 3.98%.
In the case of Cc1ccc(C)c(Oc2cc(NC(=O)CCCn3nc(C)c([N+](=O)[O-])c3C)cc([N+](=O)[O-])c2)c1, the lipid storage change, negative = inhibition is reported as inconclusive: -95.7%.
With COCCOC(=O)C1=C(C)NC2=C(C(=O)CCC2)C1c1ccc(N(C)C)cc1 (configuration not stated) the Potency was inconclusive: 6.51 µM [activator, single point].
For Cc1nn(C(C)C(=O)N2CCCC2)c(=O)c2nn(-c3ccccc3)c(C)c12 (configuration not stated), the Potency was inconclusive: 7.31 µM [activator, partial curve].
For CCN(CC)S(=O)(=O)c1cc(NC(=O)COc2ccc(C#N)cc2OC)ccc1C, the Potency was inconclusive: 7.31 µM [activator, partial curve, poor fit].
In the case of O=C(NC1CCCCC1)N1CCSC1=Nc1ccccc1, the Potency is reported as inconclusive: 23.1 µM [falling, single point].
With Cc1ccc(C(=O)Nc2ccccc2C(=O)O)cc1S(=O)(=O)NC1CCCCC1 the lipid storage change, negative = inhibition was inconclusive: 10.2%.
With CSC(=NNC(=O)c1ccc(O)cc1)SC the Potency was inconclusive: 6.51 µM [activator, single point].
With O=C(COc1ccccc1)Nc1ccc2[nH]ncc2c1 the lipid storage change, negative = inhibition was inconclusive: 112%.
